Source: PubChem BioAssay AID1259424 (University of Nebraska Medical Center, 2018)

- Assay: 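Rank knockdowns across the genome by resemblance to the KSR1 depletion profile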 (primary screen)
- System: human HCT116 colon cancer cells
- Reagents: siRNA pool against human genes, 50 nM
- Measurement: 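Log2 levels of six mRNAs (branched-DNA multiplex), adjusted by two reference genes and the non-targeting median, then scored against the average KSR1 knockdown pattern as Pearson r and euclidean distance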
- Reading the numbers: mean correlation with KSR1 profile: higher = expression change more like KSR1 knockdown
The whole screen tested about 14,000 reagents; this is an unselected part. 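Higher correlation or smaller distance means closer resemblance to KSR1 loss; control wells, including KSR1 knockdowns, recur on many plates.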 Further read-outs or replicates are left out here. The record does not give: the time to read-out.

For LPA the deposit lists mean correlation with KSR1 profile 0.432.
Silencing of MMP28 came out at: mean correlation with KSR1 profile 0.247.
After knock-down of ZNF692, the screen gave mean correlation with KSR1 profile 0.547.
Knock-down of HROB resulted in: mean correlation with KSR1 profile -0.0745.
GRID1 scored mean correlation with KSR1 profile 0.0399.
After knock-down of DNM1, the record shows mean correlation with KSR1 profile 0.368.
Knock-down of COQ5 resulted in: mean correlation with KSR1 profile 0.345.
MAGEA8 gave mean correlation with KSR1 profile -0.585.
Silencing of DSC2 came out at: mean correlation with KSR1 profile -0.103.
Knock-down of YJU2 resulted in: mean correlation with KSR1 profile -0.037.
For TUBD1 the deposit lists mean correlation with KSR1 profile 0.0947.
Silencing of CACNG1 came out at: mean correlation with KSR1 profile -0.166.
